Experimental data as given in PMC3999954.

Molecular target: TEV HAT VPg (Tobacco etch virus (strain HAT))
Experiment: two-hybrid; Matchmaker 3 yeast two-hybrid system (Clontech); TEV HAT VPg fused to the GAL4 binding domain (bait), eIF4E1 and eIFiso4E proteins fused to the activation domain (prey); growth on SD-LWH against SD-LW control; each combination in triplicate; empty vector controls for self-activation

Binder | binding
Ca.eIFiso4E (protein, UniProt A0A1U8F5V2 1-202) MATEAPPPVDTTEVPPFTAAETAVKQPHKLERKWTFWFDNQSKPKQGAAWGSSLKKAYTFDTVEEFWSLYDQIFKPSKLTVNADFHLFKAGIEPKWEDPECANGGKWTVTSSRKANLETMWLETLMALVGEQFDDSEDICGVVASVRRSQDKLSLWTKTATNEAAQMGIGRKWKEIIDTEKISYSFHDDSKRERSAKSRYTV | no binding
Ca.eIF4E1-pvr2^+ (protein, UniProt A0A1U8GR65 1-228) MATAEMEKTTTFDEAEKVKLNANEADDEVEEGEIVEETDDTTSYLSKEIATKHPLEHSWTFWFDNPVAKSKQAAWGSSLRNVYTFSTVEDFWGAYNNIHHPSKLVVGADLHCFKHKIEPKWEDPVCANGGTWKMSFSKGKSDTSWLYTLLAMIGHQFDHEDEICGAVVSVRGKGEKISLWTKNAANETAQVSIGKQWKQFLDYSDSVGFIFHDDAKRLDRNAKNRYTV | binds
At.eIFiso4E (protein, UniProt O04663-1 1-198) MATDDVNEPLPAAAELPATEAEKQPHKLERKWSFWFDNQSKKGAAWGASLRKAYTFDTVEDFWGLHETIFQTSKLTANAEIHLFKAGVEPKWEDPECANGGKWTWVVTANRKEALDKGWLETLMALIGEQFDEADEICGVVASVRPQSKQDKLSLWTRTKSNEAVLMGIGKKWKEILDVTDKITFNNHDDSRRSRFTV | no binding
At.eIF4E1 (protein, UniProt O23252 1-235) MAVEDTPKSVVTEEAKPNSIENPIDRYHEEGDDAEEGEIAGGEGDGNVDESSKSGVPESHPLEHSWTFWFDNPAVKSKQTSWGSSLRPVFTFSTVEEFWSLYNNMKHPSKLAHGADFYCFKHIIEPKWEDPICANGGKWTMTFPKEKSDKSWLYTLLALIGEQFDHGDEICGAVVNIRGKQERISIWTKNASNEAAQVSIGKQWKEFLDYNNSIGFIIHEDAKKLDRNAKNAYTA | no binding

Results are given in words; binding and its absence hold for the method and conditions named. Binding can be weak; no strength is given.
